# doi:10.1101/2020.03.25.007906 (bioRxiv, 2020)
# B1: recombinant PprA (natural protein, Deinococcus radiodurans, UniProt O32504 1-300, looked up)
# chain: MLPLAFLICSGHNKGSMARAKAKDQTDGIYAAFDTLMSTAGVDSQIAALAASEADAGTLDAALTQSLQEAQGRWGLGLHHLRHEARLTDDGDIEILTDGRPSARVSEGFGALAQAYAPMQALDERGLSQWAALGEGYRAPGDLPLAQLKVLIEHARDFETDWSAGRGETFQRVWRKGDTLFVEVARPASAEAALSDAAWDVIASIKDRAFQRELMRRSEKDGMLGALLGARHAGAKANLAQLPEAHFTVQAFVQTLSGAAARNAEEYRAALKTAAAALEEYQGVTTRQLSEVLRHGLRES
# Target: C-terminal truncated DnaA with histidine tag, in E. coli (Deinococcus radiodurans R1)
# Assay: co-IP
binder,measurement,value
B1,binding,binds

# No constants are given. Whether binding was seen depends on the method and setting. Binding seen in cells or lysates may run through a third protein. A result given as binding can be weak or reduced; the word gives no strength. Where a sequence is shown, tags or fusion partners need not be part of it.
